In patent publication US20220119492A1:
No constants are given. Whether binding was seen depends on the method and setting. A result given as binding can be weak or reduced; the word gives no strength.

B1: IL-2Rβγc ligand having SEQ ID NO: 4171 (peptide)
peptide: GGGELLVDCFKVKVGELCDLFFGPAPAPAPAPAPAPAPAGVVCQDWEGVELCWQGG

Legend:
[1] = target: cynomolgus monkey Rγc subunit (cynomolgus monkey); experiment: competition ELISA, peptide tracer
[2] = target: cynomolgus monkey IL-2Rβ subunit (cynomolgus monkey); experiment: competition ELISA, peptide tracer

Binder	binding [1]	binding [2]
GGWYPCWMAQLGELCDLDGGGGSGGVVCQDWEGVELCWQGG [IL-2Rβγc ligand having SEQ ID NO: 1263]	binds	
B1	binds	binds
